Assay results taken from US20240300940A1, “Phenothiazinyl Compounds and Uses” (Prosetta Biosciences, Inc., priority 2023, published 2024).

Test system: NorA overexpressing S. aureus
Format: cell-based
Details: NorA overexpression induced by EtBr

## O=C(O)c1cn(C2CC2)c2cc(N3CCNCC3)c(F)cc2c1=O [Ciprofloxacin]
  effect of NorA efflux pump overexpression on MIC: affects Ciprofloxacin MIC
